Structures can show the parent of a compound that is named as a salt.
Columns and labels:
[1] = Corrosion testing on chrome coupons; settings: Chrome 13, 55° C., 72 hours
[2] = Corrosion testing on chromed stainless steel coupons; settings: 55° C., 72 hours
[3] = Corrosion testing on aluminum; settings: 55° C., 72 hours

SMILES	Lb/ft2 [1] [Lb/ft2]	Loss weight [1] [g]	Lb/ft2 [2] [Lb/ft2]	Loss weight [2] [g]	Lb/ft2 [3] [Lb/ft2]	Loss weight [3] [g]
Cl [15% HCl, hydrochloric acid]	0.767	11.544	0.189	3.071	0.410	6.311
CS(=O)(=O)O [MSA (70%), methanesulfonic acid]	0.035	0.534	0.043	0.693	0.001	0.018

— patent publication US10590336B2, “Methods of using novel organic acid compositions in the oil and gas industry” (FLUID ENERGY GROUP LTD., priority 2015, dated 2020)
